From the supplement of paper PMC10849652
Some of the results follow.

Protein sequences, listed by entry. Tags and fused reporters are not part of them. Lines headed by an entry give the natural chain unless they say otherwise; changes in a name come on top.
UniProt Q6UUV7: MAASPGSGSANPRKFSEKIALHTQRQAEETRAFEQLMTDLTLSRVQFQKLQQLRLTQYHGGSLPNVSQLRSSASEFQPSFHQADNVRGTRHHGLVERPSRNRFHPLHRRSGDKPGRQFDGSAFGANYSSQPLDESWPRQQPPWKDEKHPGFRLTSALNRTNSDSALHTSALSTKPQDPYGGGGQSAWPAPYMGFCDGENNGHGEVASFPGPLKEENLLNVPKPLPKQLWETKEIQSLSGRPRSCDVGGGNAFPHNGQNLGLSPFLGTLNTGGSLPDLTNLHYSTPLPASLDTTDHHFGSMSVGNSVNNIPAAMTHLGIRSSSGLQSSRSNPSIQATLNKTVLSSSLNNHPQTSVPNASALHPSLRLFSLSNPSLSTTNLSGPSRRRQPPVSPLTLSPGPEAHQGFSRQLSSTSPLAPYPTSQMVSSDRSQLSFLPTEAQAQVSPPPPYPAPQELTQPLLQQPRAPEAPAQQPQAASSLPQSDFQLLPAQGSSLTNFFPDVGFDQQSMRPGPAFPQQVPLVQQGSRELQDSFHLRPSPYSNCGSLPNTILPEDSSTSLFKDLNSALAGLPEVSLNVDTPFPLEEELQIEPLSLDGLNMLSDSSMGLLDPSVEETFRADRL
UniProt P02461, whole entry, looked up: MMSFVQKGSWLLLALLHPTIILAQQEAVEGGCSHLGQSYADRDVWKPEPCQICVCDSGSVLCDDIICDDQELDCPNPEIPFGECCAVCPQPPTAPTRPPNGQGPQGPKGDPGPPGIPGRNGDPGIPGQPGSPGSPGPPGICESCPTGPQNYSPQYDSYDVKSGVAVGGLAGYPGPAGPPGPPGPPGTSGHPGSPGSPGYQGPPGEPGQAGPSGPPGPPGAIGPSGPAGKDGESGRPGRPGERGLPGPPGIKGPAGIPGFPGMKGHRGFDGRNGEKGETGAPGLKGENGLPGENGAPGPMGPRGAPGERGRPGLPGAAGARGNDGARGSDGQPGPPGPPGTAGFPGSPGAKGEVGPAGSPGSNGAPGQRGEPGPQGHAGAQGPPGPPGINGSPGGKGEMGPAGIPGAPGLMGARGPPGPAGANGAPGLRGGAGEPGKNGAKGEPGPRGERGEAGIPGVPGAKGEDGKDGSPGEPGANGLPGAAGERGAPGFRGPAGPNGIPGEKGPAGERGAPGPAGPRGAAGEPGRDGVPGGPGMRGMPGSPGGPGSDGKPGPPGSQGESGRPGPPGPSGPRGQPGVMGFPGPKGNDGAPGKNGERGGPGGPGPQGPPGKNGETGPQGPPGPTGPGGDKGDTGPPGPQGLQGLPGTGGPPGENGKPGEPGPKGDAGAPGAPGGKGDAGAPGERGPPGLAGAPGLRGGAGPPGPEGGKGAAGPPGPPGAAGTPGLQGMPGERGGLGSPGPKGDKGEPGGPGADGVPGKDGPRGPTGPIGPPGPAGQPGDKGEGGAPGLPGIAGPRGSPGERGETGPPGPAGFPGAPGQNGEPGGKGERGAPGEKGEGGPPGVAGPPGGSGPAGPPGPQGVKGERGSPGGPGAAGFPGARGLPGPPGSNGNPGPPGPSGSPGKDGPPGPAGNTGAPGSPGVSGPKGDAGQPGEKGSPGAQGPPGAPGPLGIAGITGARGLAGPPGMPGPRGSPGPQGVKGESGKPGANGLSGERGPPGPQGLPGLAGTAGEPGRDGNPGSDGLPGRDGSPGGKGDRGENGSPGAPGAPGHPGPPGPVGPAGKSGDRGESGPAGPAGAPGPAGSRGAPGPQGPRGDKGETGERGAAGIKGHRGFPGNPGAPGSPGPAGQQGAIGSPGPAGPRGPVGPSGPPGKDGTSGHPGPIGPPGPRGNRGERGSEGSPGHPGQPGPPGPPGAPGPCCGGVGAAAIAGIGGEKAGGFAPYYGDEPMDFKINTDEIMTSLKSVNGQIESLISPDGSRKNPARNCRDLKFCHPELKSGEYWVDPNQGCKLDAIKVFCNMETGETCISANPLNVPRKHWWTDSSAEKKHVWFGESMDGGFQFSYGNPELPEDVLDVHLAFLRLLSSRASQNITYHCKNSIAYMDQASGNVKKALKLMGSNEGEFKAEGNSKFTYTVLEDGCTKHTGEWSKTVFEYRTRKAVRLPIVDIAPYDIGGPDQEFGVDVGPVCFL
UniProt Q8NHY2, whole entry, looked up: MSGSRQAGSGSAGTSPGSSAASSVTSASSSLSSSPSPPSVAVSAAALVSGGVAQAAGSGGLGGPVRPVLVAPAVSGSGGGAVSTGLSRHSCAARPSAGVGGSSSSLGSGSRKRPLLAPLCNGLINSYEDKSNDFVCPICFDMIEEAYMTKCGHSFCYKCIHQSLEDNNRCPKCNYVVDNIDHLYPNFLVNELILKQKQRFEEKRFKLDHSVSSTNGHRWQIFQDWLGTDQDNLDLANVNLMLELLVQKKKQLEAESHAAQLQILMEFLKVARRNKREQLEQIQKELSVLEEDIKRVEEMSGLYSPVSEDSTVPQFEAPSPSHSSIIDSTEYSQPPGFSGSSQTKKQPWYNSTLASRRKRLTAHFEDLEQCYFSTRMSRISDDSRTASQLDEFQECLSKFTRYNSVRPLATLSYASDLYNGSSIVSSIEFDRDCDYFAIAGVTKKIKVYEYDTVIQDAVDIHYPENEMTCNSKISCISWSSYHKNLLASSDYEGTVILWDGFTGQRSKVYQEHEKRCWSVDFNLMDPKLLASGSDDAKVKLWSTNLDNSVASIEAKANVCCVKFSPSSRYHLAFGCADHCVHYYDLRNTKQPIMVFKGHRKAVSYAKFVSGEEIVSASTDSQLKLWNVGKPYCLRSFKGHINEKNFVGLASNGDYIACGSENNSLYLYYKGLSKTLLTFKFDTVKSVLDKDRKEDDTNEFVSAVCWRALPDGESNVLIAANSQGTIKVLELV
UniProt P29762, whole entry, looked up: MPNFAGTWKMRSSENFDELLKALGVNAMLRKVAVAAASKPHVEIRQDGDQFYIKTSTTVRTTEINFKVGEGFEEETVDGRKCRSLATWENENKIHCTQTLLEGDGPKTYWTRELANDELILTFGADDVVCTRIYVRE
UniProt P29373: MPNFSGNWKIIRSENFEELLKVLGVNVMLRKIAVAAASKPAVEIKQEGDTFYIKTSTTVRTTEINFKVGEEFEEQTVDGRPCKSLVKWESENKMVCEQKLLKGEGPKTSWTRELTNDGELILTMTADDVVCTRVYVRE
UniProt Q9Y3A0: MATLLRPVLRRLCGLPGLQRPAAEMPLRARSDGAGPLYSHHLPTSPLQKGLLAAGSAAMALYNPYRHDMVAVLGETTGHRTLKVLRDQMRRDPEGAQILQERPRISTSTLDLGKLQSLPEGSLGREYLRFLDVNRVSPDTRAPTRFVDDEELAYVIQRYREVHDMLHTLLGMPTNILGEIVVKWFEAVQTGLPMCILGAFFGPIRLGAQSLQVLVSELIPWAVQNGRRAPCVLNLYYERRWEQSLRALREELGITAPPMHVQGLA
UniProt Q14194, whole entry, looked up: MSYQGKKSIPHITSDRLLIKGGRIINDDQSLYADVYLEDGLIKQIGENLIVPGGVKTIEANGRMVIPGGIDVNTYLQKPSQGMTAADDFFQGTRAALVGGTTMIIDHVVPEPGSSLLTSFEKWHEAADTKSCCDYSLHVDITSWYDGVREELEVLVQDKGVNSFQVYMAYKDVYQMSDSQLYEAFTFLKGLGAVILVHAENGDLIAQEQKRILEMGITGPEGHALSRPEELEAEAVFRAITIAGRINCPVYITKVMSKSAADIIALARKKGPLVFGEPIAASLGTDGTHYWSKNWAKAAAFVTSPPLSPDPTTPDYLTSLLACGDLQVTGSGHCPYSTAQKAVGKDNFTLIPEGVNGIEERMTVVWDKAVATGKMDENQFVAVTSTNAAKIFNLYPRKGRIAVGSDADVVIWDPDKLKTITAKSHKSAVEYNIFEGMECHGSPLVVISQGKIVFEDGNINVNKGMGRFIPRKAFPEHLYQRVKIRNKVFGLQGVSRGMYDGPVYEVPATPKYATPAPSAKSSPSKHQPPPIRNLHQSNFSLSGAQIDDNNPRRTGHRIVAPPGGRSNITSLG
UniProt Q9BXS0: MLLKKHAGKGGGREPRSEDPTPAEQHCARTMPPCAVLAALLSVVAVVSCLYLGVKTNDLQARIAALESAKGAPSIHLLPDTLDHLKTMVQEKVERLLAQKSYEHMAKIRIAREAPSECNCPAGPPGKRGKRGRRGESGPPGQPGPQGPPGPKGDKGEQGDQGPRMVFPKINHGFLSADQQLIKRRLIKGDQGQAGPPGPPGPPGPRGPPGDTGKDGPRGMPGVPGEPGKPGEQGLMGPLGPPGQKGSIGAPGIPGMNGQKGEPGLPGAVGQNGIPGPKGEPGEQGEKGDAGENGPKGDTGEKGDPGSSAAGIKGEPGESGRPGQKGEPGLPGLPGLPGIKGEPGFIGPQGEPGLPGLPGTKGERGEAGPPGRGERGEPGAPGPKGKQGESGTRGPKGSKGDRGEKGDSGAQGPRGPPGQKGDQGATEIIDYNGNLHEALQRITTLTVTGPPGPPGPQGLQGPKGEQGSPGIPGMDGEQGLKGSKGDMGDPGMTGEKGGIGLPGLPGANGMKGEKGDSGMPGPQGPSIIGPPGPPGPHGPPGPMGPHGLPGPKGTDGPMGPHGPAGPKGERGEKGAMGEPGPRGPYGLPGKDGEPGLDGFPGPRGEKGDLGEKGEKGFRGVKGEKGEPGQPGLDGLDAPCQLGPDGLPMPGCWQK
UniProt P53674: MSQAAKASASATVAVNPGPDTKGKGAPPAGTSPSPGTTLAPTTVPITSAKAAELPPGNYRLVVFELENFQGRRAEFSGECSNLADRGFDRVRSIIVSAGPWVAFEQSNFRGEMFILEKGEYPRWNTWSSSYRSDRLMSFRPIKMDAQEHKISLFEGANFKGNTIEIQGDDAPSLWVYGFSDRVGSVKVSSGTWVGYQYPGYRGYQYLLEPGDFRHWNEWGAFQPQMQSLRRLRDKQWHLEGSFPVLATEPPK
UniProt Q49AN0: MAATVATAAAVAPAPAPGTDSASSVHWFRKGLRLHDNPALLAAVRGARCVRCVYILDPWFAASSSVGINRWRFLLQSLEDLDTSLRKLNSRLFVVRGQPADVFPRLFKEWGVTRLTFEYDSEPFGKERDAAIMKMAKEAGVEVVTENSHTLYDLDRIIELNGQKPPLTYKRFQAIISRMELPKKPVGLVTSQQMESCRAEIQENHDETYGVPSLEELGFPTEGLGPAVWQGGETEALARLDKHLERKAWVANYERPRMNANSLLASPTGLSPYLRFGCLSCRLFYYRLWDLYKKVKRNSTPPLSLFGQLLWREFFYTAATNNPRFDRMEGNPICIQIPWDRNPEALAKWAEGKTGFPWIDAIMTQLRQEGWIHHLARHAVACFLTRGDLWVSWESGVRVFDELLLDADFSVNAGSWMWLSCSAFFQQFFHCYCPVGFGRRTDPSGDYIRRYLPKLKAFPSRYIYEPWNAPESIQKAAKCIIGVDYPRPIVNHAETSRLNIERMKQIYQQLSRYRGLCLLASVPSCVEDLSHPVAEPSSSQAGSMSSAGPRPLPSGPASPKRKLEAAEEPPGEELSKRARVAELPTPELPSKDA
UniProt Q9BWP8: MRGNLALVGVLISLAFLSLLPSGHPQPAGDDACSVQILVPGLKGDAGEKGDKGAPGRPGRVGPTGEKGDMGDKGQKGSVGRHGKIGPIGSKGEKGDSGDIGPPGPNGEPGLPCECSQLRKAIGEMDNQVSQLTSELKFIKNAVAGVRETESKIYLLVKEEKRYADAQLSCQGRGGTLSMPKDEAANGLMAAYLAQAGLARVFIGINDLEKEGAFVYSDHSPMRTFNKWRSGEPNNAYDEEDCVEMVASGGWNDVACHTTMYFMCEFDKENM
UniProt Q16526: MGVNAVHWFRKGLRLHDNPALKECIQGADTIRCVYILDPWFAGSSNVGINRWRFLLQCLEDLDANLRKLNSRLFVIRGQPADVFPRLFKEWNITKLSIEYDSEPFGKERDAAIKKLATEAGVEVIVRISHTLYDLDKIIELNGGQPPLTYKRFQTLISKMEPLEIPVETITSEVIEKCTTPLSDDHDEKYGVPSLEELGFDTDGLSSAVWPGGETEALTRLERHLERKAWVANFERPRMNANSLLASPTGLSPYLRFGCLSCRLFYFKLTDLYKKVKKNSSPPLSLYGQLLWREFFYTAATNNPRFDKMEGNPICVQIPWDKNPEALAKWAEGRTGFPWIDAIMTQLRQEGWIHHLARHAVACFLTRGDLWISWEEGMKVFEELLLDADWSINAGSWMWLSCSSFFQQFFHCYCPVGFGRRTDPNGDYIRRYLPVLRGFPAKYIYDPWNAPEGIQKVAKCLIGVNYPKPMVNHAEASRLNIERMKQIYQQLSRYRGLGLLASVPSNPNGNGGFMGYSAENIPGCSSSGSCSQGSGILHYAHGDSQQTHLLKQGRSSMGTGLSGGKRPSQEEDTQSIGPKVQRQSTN
UniProt Q14894: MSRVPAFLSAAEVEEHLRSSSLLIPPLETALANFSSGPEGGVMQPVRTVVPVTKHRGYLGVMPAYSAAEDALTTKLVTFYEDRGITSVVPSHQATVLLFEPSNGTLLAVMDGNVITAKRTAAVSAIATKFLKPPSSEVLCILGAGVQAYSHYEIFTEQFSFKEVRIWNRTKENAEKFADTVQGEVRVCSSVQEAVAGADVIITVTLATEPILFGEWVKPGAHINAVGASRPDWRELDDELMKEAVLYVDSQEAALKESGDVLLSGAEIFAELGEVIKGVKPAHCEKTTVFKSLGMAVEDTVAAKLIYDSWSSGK

Assays:
Assay in all cases: log2 fold change, soluble protein after heating vs DMSO (PISA); higher = thermal stabilisation; K562 cells, 10 uM, 30 min; active = over 0.2 and 3.5 SD of the protein, either way, in both replicates (recomputed)
[1] = compound: CS(=O)(=O)c1ccc(-c2cnc(N)c(C(=O)Nc3ccccc3)n2)cc1
Procedure, shortened: (§1)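 Values are thermal stability changes relative to control samples and are taken from duplicates. They are stated as log2 fold changes. Before quantification by TMTpro 16plex LC-MS/MS with equalised channel sums, K562 cells at 2×10^6 cells/mL were treated with 10 μM compound for 30 min, heated in aliquots for 3 min across 48°C-58°C, pooled, extracted in PBS with 0.5% NP-40 at 4°C, and centrifuged at 21,000xg for 90 min to give the soluble supernatant.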

[2] = compound: C[C@@H]1COCCN1C2=NC(=NC(=C2)C3(CC3)S(=O)(=O)C)C4=C5C=CNC5=CC=C4
Procedure, shortened: as §1

[3] = compound: C[C@H](C1=CC=C(C=C1)C(=O)NC2=C3C=CNC3=NC=C2)N
Procedure, shortened: as §1

ispinesib = compound: Cc1ccc(C(=O)N(CCCN)[C@@H](c2nc3cc(Cl)ccc3c(=O)n2Cc2ccccc2)C(C)C)cc1 [ispinesib]
Procedure, shortened: as §1

bafetinib = compound: Cc1ccc(NC(=O)c2ccc(CN3CC[C@H](N(C)C)C3)c(C(F)(F)F)c2)cc1Nc1nccc(-c2cncnc2)n1 [bafetinib]
Procedure, shortened: as §1

[4] = compound: Cn1cc(-c2ccc3c(c2)CCN3C(=O)Cc2cccc(C(F)(F)F)c2)c2c(N)ncnc21
Procedure, shortened: as §1

[5] = compound: Cn1cc(-c2ccc3nnc(C(F)(F)c4ccc5ncccc5c4)n3n2)cn1
Procedure, shortened: as §1

tipifarnib = compound: Cn1cncc1[C@@](N)(c1ccc(Cl)cc1)c1ccc2c(c1)c(-c1cccc(Cl)c1)cc(=O)n2C [tipifarnib]
Procedure, shortened: as §1

mubritinib = compound: FC(F)(F)c1ccc(/C=C/c2nc(COc3ccc(CCCCn4ccnn4)cc3)co2)cc1 [mubritinib]
Procedure, shortened: as §1

crizotinib = compound: C[C@@H](Oc1cc(-c2cnn(C3CCNCC3)c2)cnc1N)c1c(Cl)ccc(F)c1Cl [crizotinib]
Procedure, shortened: as §1

duvelisib = compound: C[C@H](Nc1ncnc2nc[nH]c12)c1cc2cccc(Cl)c2c(=O)n1-c1ccccc1 [duvelisib]
Procedure, shortened: as §1

gandotinib = compound: Cc1cc(Nc2cc(CN3CCOCC3)c3nc(C)c(Cc4ccc(Cl)cc4F)n3n2)n[nH]1 [gandotinib]
Procedure, shortened: as §1

tozasertib = compound: Cc1cc(Nc2cc(N3CCN(C)CC3)nc(Sc3ccc(NC(=O)C4CC4)cc3)n2)n[nH]1 [tozasertib]
Procedure, shortened: as §1

[6] = compound: Cc1cc(SCc2sc(-c3ccc(C(F)(F)F)cc3)nc2C)ccc1OCC(=O)O
Procedure, shortened: as §1

doramapimod = compound: Cc1ccc(-n2nc(C(C)(C)C)cc2NC(=O)Nc2ccc(OCCN3CCOCC3)c3ccccc23)cc1 [doramapimod]
Procedure, shortened: as §1

[7] = compound: Cc1cccc(CC(=O)N2CCc3c2ccc(-c2cn(C)c4ncnc(N)c24)c3F)n1
Procedure, shortened: as §1

nilotinib = compound: Cc1cn(-c2cc(NC(=O)c3ccc(C)c(Nc4nccc(-c5cccnc5)n4)c3)cc(C(F)(F)F)c2)cn1 [nilotinib]
Procedure, shortened: as §1

[8] = compound: Cc1nc(Nc2n[nH]c3c2CN(C(=O)N[C@H](CN(C)C)c2ccccc2)C3(C)C)c2sccc2n1
Procedure, shortened: as §1

dasatinib = compound: Cc1nc(Nc2ncc(C(=O)Nc3c(C)cccc3Cl)s2)cc(N2CCN(CCO)CC2)n1 [dasatinib]
Procedure, shortened: as §1

[9] = compound: Cc1ncc(-c2ccnc(Nc3ccc(S(C)(=O)=O)cc3)n2)n1C(C)C
Procedure, shortened: as §1

Measured: log2 fold change

CRTC3 (UniProt Q6UUV7)
inactive: [1] -0.004 | [2] 0.177 | [3] 0.071 | ispinesib 0.129 | bafetinib -0.018 | [4] -0.002 | [5] -0.019 | tipifarnib -0.302 | mubritinib -0.168

COQ2 (UniProt Q96H96)
inactive: [2] -0.319

COX10 (UniProt Q12887)
inactive: crizotinib -0.187 | [2] -0.325 | [3] -0.014 | duvelisib 0.004 | gandotinib 0.302 | tozasertib -0.031 | [6] -0.026 | doramapimod -0.089 | ispinesib -0.242 | bafetinib -0.023 | [7] -0.046 | nilotinib 0.134 | [8] -0.117 | dasatinib -0.001 | [9] 0.18 | [4] -0.098 | [5] -0.205 | tipifarnib 0 | mubritinib 0.053

CROCCP2 (UniProt Q86T23)
inactive: ispinesib 0.013 | bafetinib -0.03 | [5] 0.103

CRISP3 isoform 3 (UniProt P54108)
inactive: bafetinib 0.761

COL6A3 (UniProt P12111)
inactive: [2] -0.001 | gandotinib -0.068 | [7] -0.15 | tipifarnib 0.078

CPLX1 (UniProt O14810)
inactive: crizotinib 0.069 | [2] -0.016 | duvelisib 0.169 | gandotinib -0.073 | [6] 0.004 | doramapimod -0.018 | ispinesib 0.108 | bafetinib -0.063 | [7] -0.059 | dasatinib 0.123 | [5] 0.11 | mubritinib 0.207

CS (UniProt F8VU34)
inactive: bafetinib 0.044

CSNK1G1 (UniProt Q9HCP0)
inactive: [1] 0.038 | [2] 0.063 | duvelisib -0.174 | [6] 0.024 | ispinesib -0.39 | bafetinib 0.038 | nilotinib 0.092 | [8] -0.455 | dasatinib -0.023 | [9] -0.021 | [5] 0.018 | mubritinib -0.037

COL3A1 (UniProt P02461)
inactive: crizotinib -0.079 | [2] -0.194 | [3] 0.347 | duvelisib -0.227 | gandotinib -0.011 | tozasertib 0.073 | [6] -0.18 | doramapimod 0.243 | ispinesib -0.141 | [7] -0.085 | dasatinib 0.174 | [4] 0.204 | [5] -0.045 | tipifarnib -0.087

CRNN (UniProt Q9UBG3)
inactive: bafetinib 0.417 | mubritinib 0.335

CREM isoform 1 (UniProt Q03060)
inactive: [1] -0.028 | [2] 0.113 | [3] 0.042 | duvelisib -0.066 | gandotinib -0.056 | tozasertib -0.014 | [6] -0.009 | ispinesib -0.004 | bafetinib -0.061 | [7] 0.326 | nilotinib 0.048 | [8] 0.078 | dasatinib 0.007 | [9] 0.074 | [4] -0.136 | [5] -0.02 | tipifarnib 0.075 | mubritinib 0.032

CPSF4 (UniProt O95639)
inactive: gandotinib -0.059 | ispinesib -0.05 | bafetinib -0.24 | [7] -0.076 | nilotinib -0.056 | [8] -0.292 | [9] -0.202 | [5] -0.151 | mubritinib -0.261

Looked up one by one from the list above (2):
CROCCP2 (UniProt Q86T23)
inactive: ispinesib 0.013 | bafetinib -0.03 | [5] 0.103

CRNN (UniProt Q9UBG3)
inactive: bafetinib 0.417 | mubritinib 0.335

Carrying on:

COP1 (UniProt Q8NHY2)
inactive: [3] 0.129 | ispinesib -0.022 | [4] -0.153 | [5] 0.102 | tipifarnib -0.036

CRABP1 (UniProt P29762)
inactive: gandotinib -0.191 | [7] 0.063

CRABP2 (UniProt P29373)
inactive: [2] -0.266 | duvelisib 0.178 | gandotinib 0.293 | [6] 0.11 | [7] -0.132 | dasatinib -0.102 | mubritinib 0.086

COQ4 (UniProt Q9Y3A0)
inactive: ispinesib -0.097 | [5] -0.059

CPA4 (UniProt Q9UI42)
inactive: tozasertib -0.077

COMMD3 (UniProt Q9UBI1)
inactive: crizotinib -0.067 | [3] -0.019 | duvelisib 0.047 | tozasertib 0.292 | [6] 0.102 | doramapimod 0.076 | ispinesib 0.055 | bafetinib -0.004 | nilotinib -0.04 | [8] -0.11 | dasatinib -0.036 | [9] 0.017 | [4] 0.056 | [5] -0.009 | tipifarnib -0.221 | mubritinib -0.113

CRMP1 isoform 2 (UniProt Q14194)
inactive: [1] 0.024 | [3] 0.08 | gandotinib -0.132 | [6] -0.003 | bafetinib -0.024 | [7] -0.035 | nilotinib -0.012 | [8] 0.221 | dasatinib -0.074 | [9] -0.138 | [4] 0.182

COL25A1 (UniProt Q9BXS0)
inactive: [2] 0.13 | bafetinib 0.285

CSNK1A1 isoform 3 (UniProt P48729)
inactive: bafetinib 0.224 | tipifarnib 0.165 | mubritinib 0.055

CRYBB1 (UniProt P53674)
inactive: crizotinib -0.597 | [2] 0.861 | duvelisib 0.019 | [6] -0.095 | doramapimod -0.075 | dasatinib -0.011

COMMD3-BMI1 (UniProt R4GMX3)
inactive: [1] 0.074 | [2] -0.031 | [3] 0.019 | gandotinib -0.011 | [7] -0.032 | nilotinib -0.109 | [8] -0.02 | [9] 0.046 | [4] 0.141 | tipifarnib 0.435

CRY2 (UniProt Q49AN0)
inactive: duvelisib 0.275 | tozasertib -0.08 | [6] -0.282 | bafetinib -0.066 | nilotinib -0.101 | [8] -0.071 | dasatinib -0.076 | [9] -0.049

CP (UniProt P00450)
inactive: ispinesib -0.027 | bafetinib 0.19 | [5] -0.081 | tipifarnib 0.12

CPN1 (UniProt P15169)
inactive: duvelisib -0.133 | tozasertib 0.135 | [6] 0.09 | ispinesib -0.142 | bafetinib -0.081 | dasatinib -0.138 | [5] 0.102

COLEC11 isoform 10 (UniProt Q9BWP8)
inactive: crizotinib -0.09 | [2] -0.019 | [3] -0.031 | duvelisib 0.139 | [6] -0.028 | doramapimod -0.153 | bafetinib 0.038 | nilotinib 0.065 | [8] 0.028 | dasatinib 0.067 | [9] -0.006 | [4] -0.016 | mubritinib 0.016

CREB3L2 (UniProt Q70SY1)
inactive: crizotinib 0.098 | [2] -0.076 | [3] -0.26 | doramapimod 0.128 | ispinesib -0.342 | bafetinib 0.01 | nilotinib 0.091 | [8] -0.009 | [9] -0.119 | [4] 0.039 | [5] -0.024 | mubritinib 0.13

COL2A1 (UniProt P02458)
inactive: [3] 0.41 | duvelisib -0.312 | tozasertib -0.283 | [6] -0.491 | dasatinib 0.26 | [4] 0.49

CRADD (UniProt P78560)
inactive: crizotinib -0.169 | [3] 0.134 | tozasertib 0.254 | doramapimod 0.042 | [4] -0.033

CSGALNACT2 (UniProt Q8N6G5)
inactive: crizotinib 0.118 | [2] 0.146 | [3] 0.176 | doramapimod -0.027 | bafetinib 0.017 | nilotinib -0.05 | [8] 0.105 | [9] -0.008 | [4] -0.053

CRY1 (UniProt Q16526)
inactive: [2] 0.076 | gandotinib -0.223 | ispinesib -0.032 | [7] -0.007 | nilotinib 0.104 | [8] -0.015 | [9] 0.052 | [5] -0.07 | tipifarnib -0.009

CRAT (UniProt P43155)
inactive: [3] 0.542 | [4] 0.089 | tipifarnib -0.266

CRYM (UniProt Q14894)
inactive: [2] 0.033 | [3] -0.133 | duvelisib 0.034 | gandotinib -0.088 | tozasertib -0.142 | [6] -0.104 | [7] 0.067 | dasatinib -0.393 | [4] 0.236
